PubChem BioAssay AID602475 (National Center for Advancing Translational Sciences (NCATS), 2012)
This list was built around the results that the source calls inconclusive (neither active nor inactive); the mix of calls is not that of the screen. Where the call is inconclusive, the potency comes from a doubtful curve fit. Activity calls are given as the source filed them. The call rests on the fitted dose curve; in most records, active means well fitted inhibition curve with a large enough effect; inconclusive means small, poorly fitted or top-dose-only effect; inactive means no such curve, though single readings can be large or run the other way.

Sequences of proteins named here, by UniProt entry; tags and fusion partners are left off.
UniProt P08659, whole entry, looked up: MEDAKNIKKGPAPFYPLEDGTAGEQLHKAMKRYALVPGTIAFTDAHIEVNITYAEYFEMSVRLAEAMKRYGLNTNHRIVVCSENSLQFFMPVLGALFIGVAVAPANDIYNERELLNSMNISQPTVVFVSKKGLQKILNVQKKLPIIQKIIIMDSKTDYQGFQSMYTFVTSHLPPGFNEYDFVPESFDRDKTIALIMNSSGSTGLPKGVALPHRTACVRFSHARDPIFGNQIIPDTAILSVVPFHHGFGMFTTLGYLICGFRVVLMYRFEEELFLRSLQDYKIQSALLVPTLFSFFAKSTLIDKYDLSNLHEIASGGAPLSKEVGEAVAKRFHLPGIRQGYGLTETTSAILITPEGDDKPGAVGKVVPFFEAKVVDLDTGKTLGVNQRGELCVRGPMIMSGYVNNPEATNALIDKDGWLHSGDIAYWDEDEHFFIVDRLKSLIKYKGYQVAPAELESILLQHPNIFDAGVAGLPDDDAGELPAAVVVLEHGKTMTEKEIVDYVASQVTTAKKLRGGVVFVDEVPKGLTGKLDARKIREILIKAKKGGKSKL

Molecular target: Luciferin 4-monooxygenase (Photinus pyralis) (UniProt P08659)
Assay: FLuc inhibitory activity for the follow-up compounds in a biochemical assay with an in-house formulation of detection reagent
Details: purified FLuc, luminescence; series mostly up to 25.6 µM
Description: NCGC Assay Overview: Firefly (Photinus pyralis) luciferase is one of the most commonly used transcriptional reporters. It is considered one of the more dynamically responsive reporters - that is, responsive to changes in reporter transcription - as it requires no post-translational modifications and is enzymatically active directly after protein synthesis (Wood, 1998). With no endogenous expression in mammalian cells and without the requirement of external excitation, it offers very little background signal, thus generally providing excellent signal to background for most assays. Previous profiling work to determine the prevalence of compounds that affect FLuc enzymatic activity (PubChem AID 411) identified that ~3% of the MLSMR library (then at ~72K) inhibited FLuc (Auld et al., 2008). […] Of the compounds identified in this profile that inhibited FLuc, 151 compounds were selected for further analysis, in an effort to better understand their mode of inhibiting FLuc. The assay described here was to determine the activity of the compounds in a FLuc assay that used an in-house formulation of detection reagent.
NCGC Assay Protocol Summary: Reagents: 300mM Tris-HCl, 300mM Trizma base, 300mM MgCl, 1% Triton-X100, 5mM DTT, 500uM Coenzyme A trilithium salt (Sigma #C3019),450uM ATP (Sigma #A7699), 1mM D-luciferin sodium salt monohydrate (Biosynth #L8240); 10nM P. pyralis luciferase (Sigma #L9506) Control compounds used were two known firefly luciferase inhibitors (3-(5-(3-chlorophenyl)-1,2,4-oxadiazol-3-yl)benzoic acid and 5-(2-fluorophenyl)-3-phenyl-1,2,4-oxadiazole), and DMSO. Assay Summary: Six microliters of buffer containing firefly luciferase (final concentrations: 50mM Tris acetate, 10nM P. pyralis luciferase) are dispensed into each well of a Greiner white, solid-bottom 1536-well format plate using a flying reagent dispenser (FRD). These assay plates were then treated with 23nL of compound or DMSO using a Kalypsys pin tool, which allows for delivery of a 12-point intraplate titration of each compound to the assay plate (quantitative HTS), with final compound concentrations ranging from approximately ~25uM to 0.1nM. Three microliters of 3X in-house detection reagent was then delivered by FRD to each well (final concentrations in assay: 300mM Tris-HCl, 300mM Trizma base, 300mM MgCl, 1% Triton-X100, 5mM DTT, 500uM Coenzyme A trilithium salt, 450uM ATP, 1mM D-luciferin sodium salt monohydrate). Luciferase activity was then measured using a ViewLux CCD imager (PerkinElmer), with an average exposure time of 2-30 seconds (2X binning, medium/high gain).

Row | Compound | Potency
1 | COc1cccc(-c2nc3ccccc3s2)c1 | active: 7.79 µM
2 | COc1c(C)cccc1C(=O)Nc1ccc(-c2nc3ccccc3s2)c(Cl)c1 | inconclusive: 6.19 µM [inhibitor, partial curve, poor fit]
3 | COc1ccc2nc(NC(=O)c3ccc([N+](=O)[O-])o3)sc2c1 | active: 9.8 µM
4 | Nc1ccc2nc(-c3ccccc3)sc2c1 | active: 2.19 µM
5 | O=C(O)c1cccc(NC(=O)c2cccc(S(=O)(=O)Nc3cccc(F)c3)c2)c1 | inactive
6 | CC(=O)Nc1cccc(-c2nc3ccccc3s2)c1C | inactive
7 | COc1ccc(C(=O)Nc2ccccc2C(=O)Nc2ccc(C(=O)O)cc2)cc1 | inconclusive: 6.19 µM [inhibitor, partial curve, poor fit]
8 | CN(C)S(=O)(=O)c1ccc(C(=O)Nc2ccccc2C(=O)O)cc1 | inactive
9 | CC(C)Oc1ccc(C(=O)Nc2ccc(-c3nc4ccccc4s3)cc2)cc1 | inconclusive: 4.38 µM [inhibitor, single point]
10 | O=C(O)c1cccc(NC(=O)c2ccc(S(=O)(=O)c3ccccc3)cc2)c1 | inconclusive: 8.74 µM [inhibitor, partial curve, poor fit]
11 | O=C(Nc1ccccc1C(=O)O)c1ccc(Cl)c(S(=O)(=O)N2CCOCC2)c1 | inconclusive: 19.6 µM [inhibitor, partial curve, poor fit]
12 | O=C(Nc1ccccc1-c1nc2ccccc2s1)c1ccc(Br)o1 | inconclusive: 6.94 µM [inhibitor, partial curve, poor fit]
13 | Cc1ccc2nc(-c3ccc(NC(=O)CN4CCN(C(=O)c5ccco5)CC4)cc3)sc2c1 | active: 2.46 µM
14 | COc1ccc2nc(NC(=O)c3ccc4ncsc4c3)sc2c1 | inconclusive: 9.8 µM [inhibitor, partial curve, poor fit]
15 | COc1cc(OC)cc(C(=O)Nc2ccc(-c3nc4ccccc4s3)c(C)c2)c1 | inactive
16 | COc1ccc2nc(NC(=O)c3ccccc3C(=O)O)sc2c1 | inconclusive: 7.79 µM [inhibitor, partial curve, poor fit]
17 | Nc1ccc(-c2nc3ccc(C(=O)O)cc3s2)cc1 | active: 5.51 µM
18 | COc1ccc2nc(NC(=O)CCc3nc(-c4ccccc4F)no3)sc2c1 | active: 6.94 µM
19 | COc1ccc2nc(NC(=O)C3CCN(S(=O)(=O)c4cccs4)CC3)sc2c1 | inconclusive: 1.23 µM [inhibitor, full curve]
20 | CCOc1ccc(C(=O)Nc2cccc(C(=O)O)c2)cc1Cl | inconclusive: 17.4 µM [inhibitor, single point]
21 | COc1cccc(OC)c1C(=O)Nc1cccc(C(=O)Nc2cccc(C(=O)O)c2)c1 | inconclusive: 1.23 µM [inhibitor, partial curve, poor fit]
22 | O=C(Cc1ccccc1)Nc1ccccc1C(=O)Nc1ccc(C(=O)O)cc1 | inactive
23 | CCn1c(C)nc2cc(-c3nc4n(n3)Cc3ccccc3-4)ccc21 | active: 0.155 µM
24 | CC(C)(C)NC(=O)c1ccccc1-c1nc2ccccc2s1 | inactive
25 | O=C(Cc1ccc(Cl)cc1)Nc1cccc(C(=O)Nc2ccccc2C(=O)O)c1 | inactive

Reprinted at random: 2 compounds from above.
Row | Compound | Potency
20 | CCOc1ccc(C(=O)Nc2cccc(C(=O)O)c2)cc1Cl | inconclusive: 17.4 µM [inhibitor, single point]
21 | COc1cccc(OC)c1C(=O)Nc1cccc(C(=O)Nc2cccc(C(=O)O)c2)c1 | inconclusive: 1.23 µM [inhibitor, partial curve, poor fit]
